For this assay, the target named is human LDLR, endogenous on HUVEC (human (endogenous in HUVEC)) (UniProt P01130). In words: flow cytometry on cells; 1.10^10 phage on 1.10^6 HUVEC, 20 min on ice, without or with LDL at 0.5 mg/mL; anti-M13 (anti-PVIII) and anti-hLDLR antibodies; signal in zone Q2; only the binder purified. Background: Flow cytometry measures light scatter and fluorescence of single cells or particles in a stream.

Results are given in words; binding and its absence hold for the method and conditions named. Some entries that bind do so weakly or less than the wild type.

In the case of TPSAHAMALQSLSVG [VH549 peptide displayed on phage], the binding result is reported as “binds”.

For the origin of these results see PMC5828360, “Identification and characterization of highly versatile peptide-vectors that bind non-competitively to the low-density lipoprotein receptor for in vivo targeting and delivery of small molecules and protein cargos” (PLoS ONE, 2018).
